The results in this text go back to PubChem BioAssay AID1487 (National Center for Advancing Translational Sciences (NCATS), 2009).

The other results are listed elsewhere or left out. These are further read-outs of the screen, such as a control signal, another cell line or another target. No call is given for them. Most of these compounds were active or inconclusive in the main read-out, so they are no random draw. Words in brackets tell the shape of the fitted curve; partial curves, single points and poor fits give uncertain potencies.

This experiment is described as follows: qHTS Assay for Modulators of Lamin A Splicing. The settings on record: HeLa LMNA splicing GFP/RFP minigene ratio, 48 h. Put shortly: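 S3 HeLa stable clones carrying a lamin A-EGFP splicing minigene plus DsRed2 were seeded at 600 cells/well in Opti-MEM with 2% FBS, pin-dosed and incubated 48 h at 37°C. Acumen cytometry (488 nm) gave the GFP/RFP total-intensity ratio.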
A general note: qHTS replaces the single test concentration by a dilution series.

The mark [1] stands for this setting: measured here: RFP viability control channel.
[2] abbreviates: measured here: GFP splicing reporter channel.

One may read the AC50 as the concentration giving half of the maximal activity seen. `Cc1cc(C(=O)CSc2nnc(Cc3ccccc3)o2)c(C)n1Cc1ccc2c(c1)OCO2`: the half-maximal activity concentration (AC50) under setting [1] is 11.2 µM [rising, single point]. On to `CC1(C)COCN1S(=O)(=O)c1ccc(C(=O)Nc2nnc(-c3ccc(Cl)s3)o2)cc1`, for which, under setting [1], the AC50 was 12.6 µM [rising, partial curve, poor fit]. With `COc1ccc(-n2cc(-c3ccc(C)cc3)[n+]3c2SCC3)cc1`, under setting [1], the AC50 is 3.16 µM [rising, full curve]. Turning to `O=C1Nc2ccccc2C1(c1ccccc1)c1ccccc1`, the concentration at half-maximal activity (AC50) under setting [1] is 31.6 µM [rising, single point].

As for `Nc1ccccc1SC1CC(=O)N(c2ccccc2Cl)C1=O` (centres undefined), the AC50 under setting [2] is 2 µM [rising, partial curve, poor fit].

For `O=C(NCCc1ccccc1)c1cc(Sc2ccc(F)cc2F)nc2ccccc12`, the concentration at half-maximal activity (AC50) under setting [2] was 0.0224 µM [rising, full curve, poor fit].

On to `Cc1cc(O)c(C(C)C)cc1Cl`, for which the AC50 is, setting by setting: under setting [2], 35.5 µM [falling, single point]; under setting [1], 35.5 µM [falling, single point]. Regarding `COc1ccc(NS(=O)(=O)c2ccc3[nH]c4c(c3c2)CCCCCC4)cc1`, the AC50 is, setting by setting: under setting [2], 35.5 µM [falling, single point]; under setting [1], 31.6 µM [falling, single point]. For `COC(=O)c1cn(NC(=O)c2ccccc2[N+](=O)[O-])c(=O)c2ccccc12`, the AC50 under setting [2] is 35.5 µM [falling, single point].

For the compound `CC1CCC(C(C)C)C(OC(=O)Cn2c(-c3ccc(F)cc3)[n+](C)c3ccccc32)C1` (centres undefined), the AC50 under setting [1] is 11.2 µM [rising, partial curve]. For the compound `CCN(CC)c1ccc(NC(=O)CSc2ccsc2[N+](=O)[O-])c(C)c1`, under setting [1], the AC50 is 35.5 µM [rising, single point]. Take `O=C(Nc1nc2c(s1)CCCC2)c1ccc(Br)s1`: under setting [1], the concentration at half-maximal activity (AC50) is 25.1 µM [rising, single point].

With `COc1cc(OC)cc(-c2nnc(Sc3ccc(C=O)cc3[N+](=O)[O-])o2)c1`, the AC50 under setting [2] is 17.8 µM [falling, single point].

`COc1ccc(O)c(-c2[nH]ncc2C(=O)c2ccccc2C)c1`: the concentration at half-maximal activity (AC50) under setting [2] is 0.355 µM [rising, full curve, poor fit]. As for `O=C(COc1cccc(C(F)(F)F)c1)N1CCN(c2ccc(O)cc2)CC1`, under setting [1], the AC50 was 3.98 µM [rising, partial curve].

As to `Cc1ccc(-c2csc(N(CC3CCCO3)C(=O)c3ccco3)n2)cc1` (centres undefined), the concentration at half-maximal activity (AC50) is, setting by setting: under setting [2], 14.1 µM [rising, single point]; under setting [1], 17.8 µM [rising, partial curve]. `CCCCn1c(CN(C)Cc2ccccc2)nc2c1c(=O)n(C)c(=O)n2C`: under setting [1], the AC50 is 11.2 µM [rising, partial curve]. Still for that read-out and setting: to `COc1cccc(NC(=S)N/N=C2/CCCCc3ccccc32)c1` belongs 35.5 µM [rising, single point]. `Cc1c(CCOC(=O)C23CC4CC(CC(C)(C4)C2)C3)sc[n+]1Cc1ccccc1`: under setting [2], the AC50 is 12.6 µM [rising, single point]. For the compound `CN(C)/C=C/c1onc(-c2ccccc2Cl)c1C#N`, the AC50 under setting [2] is 28.2 µM [falling, partial curve]. Regarding `Cc1ccc(S(=O)(=O)n2c3ccc(F)cc3c3nc(C)sc32)cc1`, the concentration at half-maximal activity (AC50) by setting is: under setting [2], 12.6 µM [rising, single point]; under setting [1], 31.6 µM [rising, single point]. Turning to `COCCCNC(=O)Cc1coc2ccc3ccccc3c12`, the AC50 was 22.4 µM [falling, single point] under setting [2] and 17.8 µM [falling, single point] under setting [1].

`CCN(CC)S(=O)(=O)c1cccc(-c2cn3cc(C)ccc3n2)c1`: the AC50 under setting [1] was 17.8 µM [rising, single point].

As to `CC(C)N=C(NS(=O)(=O)c1ccccc1)C(Cl)(Cl)Cl`, the AC50 under setting [2] is 35.5 µM [falling, partial curve] and the half-maximal activity concentration (AC50) under setting [1] is 6.31 µM [falling, partial curve]. Regarding `COCCNc1ncnc2c1c(-c1ccccc1)cn2-c1cccc(Cl)c1`, the AC50 is 35.5 µM [falling, partial curve, poor fit] under setting [2] and 35.5 µM [falling, partial curve, poor fit] under setting [1]. Turning to `CC(/C=C/c1cccc([N+](=O)[O-])c1)=N/NC(=O)c1cccnc1`, the AC50 under setting [1] was 35.5 µM [rising, single point]. As to `COc1cc(NC(=O)CSc2ccc3c(c2)OCCO3)cc(OC)c1OC`, the concentration at half-maximal activity (AC50) under setting [2] is 0.447 µM [falling, single point]. Turning to `CC(Oc1cc(Cl)ccc1Cl)C(=O)N/N=C\c1ccnn1C` (centres undefined), the half-maximal activity concentration (AC50) under setting [1] was 3.55 µM [falling, partial curve]. With `Cc1noc(C)c1-c1ccc2ncnc(NCCN3CCOCC3)c2c1`, under setting [2], the concentration at half-maximal activity (AC50) was 12.6 µM [falling, partial curve]. As to `CS/C(=N/S(=O)(=O)c1ccc(C)cc1)c1ccccc1`, the AC50 under setting [1] is 15.8 µM [rising, partial curve].

`O=C(CSc1nc(Nc2ccccc2)nc(N2CCOCC2)n1)N1CCc2ccccc21`: the AC50 is, setting by setting: under setting [2], 3.98 µM [rising, full curve, poor fit]; under setting [1], 3.98 µM [rising, full curve].

Turning to `COCCOC(=O)/C(C#N)=C/c1cn(Cc2ccccc2)nc1-c1cccnc1`, under setting [2], the AC50 was 35.5 µM [falling, single point]. On the same count and under the same terms, for `CCN(CC)CCOC(=O)c1ccc(N)cc1` the value was 0.0794 µM [rising, full curve, poor fit]. Take `O=C(Cc1ccc(F)cc1)Nc1cccc(-c2cn3c(n2)SCC3)c1`: under setting [1], the AC50 is 2.51 µM [falling, partial curve, poor fit]. Take `Cn1c(=O)c2c(nc(NC(Cc3ccccc3)C(=O)O)n2Cc2ccccc2)n(C)c1=O` (centres undefined): the half-maximal activity concentration (AC50) was 3.16 µM [falling, single point] under setting [2] and 3.98 µM [falling, single point] under setting [1].

For `CCOC(=O)C1CC(c2ccccc2)=NNC1=O` (centres undefined), under setting [2], the half-maximal activity concentration (AC50) is 0.251 µM [falling, full curve]. As to `CN1CCN(c2ncc3nc(-c4cn(C)c5ccccc45)c(=O)n(C[C@H]4CCCO4)c3n2)CC1`, the AC50 is, setting by setting: under setting [2], 31.6 µM [falling, single point]; under setting [1], 20 µM [falling, partial curve]. As for `Cc1cnc(CNc2ncnc3ccc(-c4ccccc4C)cc23)cn1`, under setting [2], the half-maximal activity concentration (AC50) was 7.94 µM [falling, partial curve, poor fit].

On to `CCCCCCCn1c(=N)n(CC(=O)c2ccco2)c2ccccc21`, for which the AC50 under setting [1] was 12.6 µM [rising, partial curve, poor fit]. Same read-out and setting: to `COc1ccc(-n2c(O)c(C=NC3CC3)c(=O)[nH]c2=O)cc1` belongs 1.58 µM [falling, partial curve, poor fit]. Turning to `CCOc1cc(/C=N/O)ccc1OCc1ccc(F)cc1`, the AC50 under setting [2] is 35.5 µM [rising, single point]. Turning to `CCN(CCCNC(=O)CCCN1C(=O)COc2ccc(C)cc21)c1cccc(C)c1`, the AC50 was 35.5 µM [rising, single point] under setting [2] and 35.5 µM [rising, single point] under setting [1].

As for `Cc1sc(NC(=O)c2ccco2)c(CN2CCN(c3ccccn3)CC2)c1C`, the AC50 reads like this: under setting [2], 10 µM [rising, partial curve]; under setting [1], 12.6 µM [rising, partial curve]. Regarding `COc1cc(C(=O)O)cc(NC(=O)c2cccs2)c1OC`, the AC50 under setting [1] is 0.00316 µM [falling, full curve, poor fit].

In the case of `CCN1CCc2c(sc(NC(=O)CSc3ccccc3)c2-c2nc3ccccc3s2)C1`, the AC50 under setting [1] was 35.5 µM [falling, partial curve, poor fit].

Consider `CCC1=Nc2cc(C(=O)NCCCOC(C)C)ccc2Sc2ccc(C)cc21`, for which the AC50 under setting [1] was 3.98 µM [rising, single point]. The same measure, in the same setting: to `Cc1cc(Nc2ccc(Br)c(C)c2)n2nc(C)nc2n1` belongs 12.6 µM [rising, partial curve, poor fit]. Turning to `CC(C)CCNC(=O)CN(C(=O)Cn1nnc(-c2ccc(F)cc2)n1)C1CCCC1`, the concentration at half-maximal activity (AC50) under setting [2] was 14.1 µM [rising, single point]. Regarding `CCOC(=O)C1=C(N)n2c(s/c(=C\c3ccco3)c2=O)=C(C(=O)OCC)C1c1ccco1` (centres undefined), the half-maximal activity concentration (AC50) by setting is: under setting [2], 6.31 µM [falling, full curve]; under setting [1], 4.47 µM [falling, full curve].

Turning to `CCn1c(CSc2nc3ccccc3s2)nnc1SCC(=O)c1ccc(O)c(O)c1`, under setting [1], the concentration at half-maximal activity (AC50) was 15.8 µM [rising, single point].

In the case of `COc1ccc(N(C(C)C(=O)N/N=C(\C)C(C)(C)C)S(C)(=O)=O)cc1` (centres undefined), the AC50 runs as follows: under setting [2], 0.316 µM [falling, full curve, poor fit]; under setting [1], 0.447 µM [falling, full curve]. With `CCCCN(C)C(=O)c1ccc2c(c1)N(Cc1cccc(Cl)c1)C(=O)c1ccccc1S2=O` (centres undefined), the half-maximal activity concentration (AC50) is 35.5 µM [rising, single point] under setting [2] and 17.8 µM [rising, single point] under setting [1]. As for `COc1cc(/C=N/Nc2ncc(C(F)(F)F)cc2Cl)cc(OC)c1OC`, under setting [1], the AC50 was 35.5 µM [rising, single point]. As for `CC1(C)CC(=O)C(C2(O)C(=O)Nc3ccccc32)CO1` (centres undefined), the AC50 was 2.82 µM [rising, partial curve, poor fit] under setting [2] and 3.98 µM [rising, partial curve] under setting [1]. As to `CCOC(=O)C1(C)C=C(Nc2ccc(O)cc2)C(=O)N1c1ccc(O)cc1` (centres undefined), the half-maximal activity concentration (AC50) under setting [1] is 12.6 µM [rising, partial curve, poor fit]. Still for that read-out and setting: to `CN1CCN(C(=S)Nc2cccc(Cl)c2)CC1` belongs 17.8 µM [rising, single point]. Turning to `Cc1ccc(S(=O)(=O)N(C)c2ccc(C(=O)N3CCN(Cc4ccc5c(c4)OCO5)CC3)cc2)cc1`, the half-maximal activity concentration (AC50) under setting [2] is 4.47 µM [rising, partial curve] and the concentration at half-maximal activity (AC50) under setting [1] is 6.31 µM [rising, partial curve].
